{"source": "PubChem BioAssay AID686938 – Drosophila RNAi Screening Center | 2013", "test": "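Looking for CRAC channel components and the factors controlling them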 (primary screen)", "cells": "Drosophila S2R+ cells", "knock-down reagent": "long dsRNA against Drosophila genes, about 0.25 µg dsRNA per well, roughly 10,000 cells", "time to read-out": "5 days of knock-down before the calcium assay", "conditions": "thapsigargin (SERCA pump blocker) to empty calcium stores; entry signal taken 4 min after adding it", "measured": "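Per-well fluo-4 fluorescence in two replicates, unnormalised, measured in resting cells and 4 min after store depletion by the SERCA blocker thapsigargin; ratio of the two present in few wells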", "direction": "calcium entry signal: higher = stronger calcium signal after store depletion; resting calcium signal: higher = higher resting calcium signal", "rule for the call": "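Hit if the duplicate-averaged plate z-score for entry over resting signal is under −3; wells with weak total dye signal (Fmax z < −2) or more than 5 off-targets removed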", "meaning of the calls": "active = strongly reduced calcium entry; inactive = no strong reduction", "note": "In all, the deposit lists about 23,000 reagents; shown is an unselected part of those with a known target gene and a result. Over the whole deposit, 75 (0.33%) got an active call. 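Raw plate signals without normalisation; calls rest on plate z-scores that were not deposited; ratio present for only 364 wells.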 Unmarked entries are inactive. The numbers tell different reagents against one gene apart. No sequences are given here. The record does not give: the dose of the treatment."}
The first 2 records, to show the layout:
{"gene knocked down": "Pex7 (GeneID 38994)", "reagent": 1, "calcium entry signal, replicate 1 (fluorescence units)": 3.25e7, "calcium entry signal, replicate 2 (fluorescence units)": 5.14e7, "resting calcium signal, replicate 1 (fluorescence units)": 1.59e7, "resting calcium signal, replicate 2 (fluorescence units)": 2.24e7}
{"gene knocked down": "Acp24A4 (GeneID 318936)", "reagent": 1, "calcium entry signal, replicate 1 (fluorescence units)": 3.67e7, "calcium entry signal, replicate 2 (fluorescence units)": 6.67e7, "resting calcium signal, replicate 1 (fluorescence units)": 1.70e7, "resting calcium signal, replicate 2 (fluorescence units)": 3.23e7}

Results, from the first entry:
{"gene knocked down": "Pex7 (GeneID 38994)", "reagent": 1, "calcium entry signal, replicate 1 (fluorescence units)": 3.25e7, "calcium entry signal, replicate 2 (fluorescence units)": 5.14e7, "resting calcium signal, replicate 1 (fluorescence units)": 1.59e7, "resting calcium signal, replicate 2 (fluorescence units)": 2.24e7}
{"gene knocked down": "Acp24A4 (GeneID 318936)", "reagent": 1, "calcium entry signal, replicate 1 (fluorescence units)": 3.67e7, "calcium entry signal, replicate 2 (fluorescence units)": 6.67e7, "resting calcium signal, replicate 1 (fluorescence units)": 1.70e7, "resting calcium signal, replicate 2 (fluorescence units)": 3.23e7}
{"gene knocked down": "mRpL36 (GeneID 59151)", "reagent": 1, "calcium entry signal, replicate 1 (fluorescence units)": 3.92e7, "calcium entry signal, replicate 2 (fluorescence units)": 3.81e7, "resting calcium signal, replicate 1 (fluorescence units)": 1.67e7, "resting calcium signal, replicate 2 (fluorescence units)": 1.74e7}
{"gene knocked down": "CG13609 (GeneID 42883)", "reagent": 1, "calcium entry signal, replicate 1 (fluorescence units)": 5.72e7, "calcium entry signal, replicate 2 (fluorescence units)": 3.50e7, "resting calcium signal, replicate 1 (fluorescence units)": 2.34e7, "resting calcium signal, replicate 2 (fluorescence units)": 1.42e7}
{"gene knocked down": "CG13609 (GeneID 42883)", "reagent": 2, "calcium entry signal, replicate 1 (fluorescence units)": 2.82e7, "calcium entry signal, replicate 2 (fluorescence units)": 4.63e7, "resting calcium signal, replicate 1 (fluorescence units)": 1.45e7, "resting calcium signal, replicate 2 (fluorescence units)": 2.00e7}
{"gene knocked down": "CG14096 (GeneID 40113)", "reagent": 1, "calcium entry signal, replicate 1 (fluorescence units)": 3.10e7, "calcium entry signal, replicate 2 (fluorescence units)": 2.70e7, "resting calcium signal, replicate 1 (fluorescence units)": 1.55e7, "resting calcium signal, replicate 2 (fluorescence units)": 1.33e7}
{"gene knocked down": "Bre1 (GeneID 38652)", "reagent": 1, "calcium entry signal, replicate 1 (fluorescence units)": 2.94e7, "calcium entry signal, replicate 2 (fluorescence units)": 2.20e7, "resting calcium signal, replicate 1 (fluorescence units)": 2.05e7, "resting calcium signal, replicate 2 (fluorescence units)": 9.49e6}
{"gene knocked down": "e(y)2b (GeneID 50143)", "reagent": 1, "calcium entry signal, replicate 1 (fluorescence units)": 5.10e7, "calcium entry signal, replicate 2 (fluorescence units)": 3.13e7, "resting calcium signal, replicate 1 (fluorescence units)": 2.35e7, "resting calcium signal, replicate 2 (fluorescence units)": 1.53e7}
{"gene knocked down": "nompC (GeneID 33768)", "reagent": 1, "calcium entry signal, replicate 1 (fluorescence units)": 2.58e7, "calcium entry signal, replicate 2 (fluorescence units)": 1.74e7, "resting calcium signal, replicate 1 (fluorescence units)": 1.35e7, "resting calcium signal, replicate 2 (fluorescence units)": 1.00e7}
{"gene knocked down": "Tes (GeneID 36965)", "reagent": 1, "calcium entry signal, replicate 1 (fluorescence units)": 5.19e7, "calcium entry signal, replicate 2 (fluorescence units)": 5.04e7, "resting calcium signal, replicate 1 (fluorescence units)": 2.27e7, "resting calcium signal, replicate 2 (fluorescence units)": 2.47e7}
{"gene knocked down": "saturn (GeneID 317880)", "reagent": 1, "calcium entry signal, replicate 1 (fluorescence units)": 2.87e7, "calcium entry signal, replicate 2 (fluorescence units)": 3.08e7, "resting calcium signal, replicate 1 (fluorescence units)": 1.36e7, "resting calcium signal, replicate 2 (fluorescence units)": 1.47e7}
{"gene knocked down": "bru2 (GeneID 250811)", "reagent": 1, "calcium entry signal, replicate 1 (fluorescence units)": 5.60e7, "calcium entry signal, replicate 2 (fluorescence units)": 3.65e7, "resting calcium signal, replicate 1 (fluorescence units)": 2.48e7, "resting calcium signal, replicate 2 (fluorescence units)": 1.62e7}
{"gene knocked down": "bru2 (GeneID 250811)", "reagent": 2, "calcium entry signal, replicate 1 (fluorescence units)": 3.24e7, "calcium entry signal, replicate 2 (fluorescence units)": 2.52e7, "resting calcium signal, replicate 1 (fluorescence units)": 2.10e7, "resting calcium signal, replicate 2 (fluorescence units)": 1.54e7}
{"gene knocked down": "bru2 (GeneID 250811)", "reagent": 3, "calcium entry signal, replicate 1 (fluorescence units)": 4.17e7, "calcium entry signal, replicate 2 (fluorescence units)": 3.93e7, "resting calcium signal, replicate 1 (fluorescence units)": 2.30e7, "resting calcium signal, replicate 2 (fluorescence units)": 1.73e7}
{"gene knocked down": "bru2 (GeneID 250811)", "reagent": 4, "calcium entry signal, replicate 1 (fluorescence units)": 4.78e7, "calcium entry signal, replicate 2 (fluorescence units)": 4.02e7, "resting calcium signal, replicate 1 (fluorescence units)": 2.17e7, "resting calcium signal, replicate 2 (fluorescence units)": 1.84e7}
{"gene knocked down": "bru2 (GeneID 250811)", "reagent": 5, "calcium entry signal, replicate 1 (fluorescence units)": 1.95e7, "calcium entry signal, replicate 2 (fluorescence units)": 2.14e7, "resting calcium signal, replicate 1 (fluorescence units)": 1.17e7, "resting calcium signal, replicate 2 (fluorescence units)": 1.10e7}
